No constants are given. Whether binding was seen depends on the method and setting. Binding seen in cells or lysates may run through a third protein. Some results given as binding are weak or reduced against the parent protein; the word gives no strength.
Target: T1, Parkin (mouse (endogenous in SN4741)) (UniProt Q9WVS6)
T1 sequence: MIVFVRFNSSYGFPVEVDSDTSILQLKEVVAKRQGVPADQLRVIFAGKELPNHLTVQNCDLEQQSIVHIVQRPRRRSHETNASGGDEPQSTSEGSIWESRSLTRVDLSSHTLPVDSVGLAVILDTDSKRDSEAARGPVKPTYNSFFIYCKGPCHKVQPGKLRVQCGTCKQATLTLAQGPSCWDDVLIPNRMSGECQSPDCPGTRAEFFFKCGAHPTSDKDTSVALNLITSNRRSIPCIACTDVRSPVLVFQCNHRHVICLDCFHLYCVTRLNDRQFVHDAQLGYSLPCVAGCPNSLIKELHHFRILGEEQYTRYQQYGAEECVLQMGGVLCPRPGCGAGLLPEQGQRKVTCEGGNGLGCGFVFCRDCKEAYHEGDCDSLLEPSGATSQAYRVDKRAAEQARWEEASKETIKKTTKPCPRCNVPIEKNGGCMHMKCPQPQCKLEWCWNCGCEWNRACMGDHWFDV
Test: co-IP; SN4741 cell lysates (empty vector or α-synuclein A53T, DMSO or SB203580 10 μM 24 h); IP with anti-Parkin, immunoblot for PINK1; IgG control; lysis in 20 mM Tris-HCl pH 7.4, 150 mM NaCl, 1% Triton X-100; beads washed with RIPA

Protein sequences, listed by entry. Tags and fused reporters are not part of them. Lines headed by an entry give the natural chain unless they say otherwise; changes in a name come on top.
UniProt Q99MQ3: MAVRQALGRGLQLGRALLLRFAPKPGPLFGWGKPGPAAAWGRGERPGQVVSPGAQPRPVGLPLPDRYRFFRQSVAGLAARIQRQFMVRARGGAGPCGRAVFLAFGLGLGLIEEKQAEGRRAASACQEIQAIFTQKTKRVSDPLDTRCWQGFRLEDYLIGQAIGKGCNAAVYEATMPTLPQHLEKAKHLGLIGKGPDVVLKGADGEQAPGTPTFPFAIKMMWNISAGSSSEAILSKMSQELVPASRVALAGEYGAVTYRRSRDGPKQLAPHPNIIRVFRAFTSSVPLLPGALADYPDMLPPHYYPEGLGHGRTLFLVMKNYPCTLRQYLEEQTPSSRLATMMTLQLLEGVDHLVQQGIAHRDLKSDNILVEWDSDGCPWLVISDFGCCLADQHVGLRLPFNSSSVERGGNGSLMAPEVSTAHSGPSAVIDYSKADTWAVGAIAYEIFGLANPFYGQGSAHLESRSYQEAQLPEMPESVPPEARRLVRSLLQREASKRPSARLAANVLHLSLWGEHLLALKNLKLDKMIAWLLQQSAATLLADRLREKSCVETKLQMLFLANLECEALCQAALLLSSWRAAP

Question: How did the binding turn out when PINK1 (from UniProt Q99MQ3 78-580) was run?
Answer: binds
